# Data: the supplement of paper PMC3682954
# Counter-ions that a name gives are not always drawn. ± gives the standard deviation of the averaged measurements. This is one part of the list. Many values rest on one well or one pass, so single values are uncertain.
# Test system: RAW 264.7
# Assay: HMGB1-induced TNF-alpha production relative to HMGB1-stimulated control; higher = more TNF-alpha secretion (less inhibition)
# Conditions: stimulus: HMGB1 5 ug/ml, 18 h
# [1] = compound concentration: 1 ug/ml
smiles,measurement,setting,value
COC(=O)Nc1nc2cc(Sc3ccccc3)ccc2[nH]1 [Fenbendazole],HMGB1-induced TNF-alpha production,compound concentration: 3 uM,83.5 ± 23%
COC(=O)Nc1nc2cc(Sc3ccccc3)ccc2[nH]1,HMGB1-induced TNF-alpha production,compound concentration: 3 uM,111%
Cn1c(=O)c2c(ncn2CC2OCCO2)n(C)c1=O [Doxofylline],HMGB1-induced TNF-alpha production,compound concentration: 3 uM,78.3 ± 29%
CCN(CC)C(C)CN1c2ccccc2Sc2ccccc21 (configuration not stated) [Ethopropazine hydrochloride],HMGB1-induced TNF-alpha production,compound concentration: 3 uM,110 ± 3.3%
CCN(CC)C(C)CN1c2ccccc2Sc2ccccc21 (configuration not stated),HMGB1-induced TNF-alpha production,compound concentration: 3 uM,81.4%
CCCNC(=O)NS(=O)(=O)c1ccc(Cl)cc1 [Chlorpropamide],HMGB1-induced TNF-alpha production,compound concentration: 3 uM,84.8 ± 0.93%
CCCNC(=O)NS(=O)(=O)c1ccc(Cl)cc1,HMGB1-induced TNF-alpha production,compound concentration: 3 uM,84.6%
CC(=O)O[C@]1(C(C)=O)CC[C@H]2[C@@H]3C=C(Cl)C4=CC(=O)CC[C@]4(C)[C@H]3CC[C@@]21C [Chlormadinone Acetate],HMGB1-induced TNF-alpha production,compound concentration: 3 uM,82.7%
CC(=O)O[C@]1(C(C)=O)CC[C@H]2[C@@H]3C=C(Cl)C4=CC(=O)CC[C@]4(C)[C@H]3CC[C@@]21C [Chlormadinone acetate],HMGB1-induced TNF-alpha production,[1],72.1%
same,HMGB1-induced TNF-alpha production,compound concentration: 3 uM,85%
CC(=O)O[C@]1(C(C)=O)CC[C@H]2[C@@H]3C=C(Cl)C4=CC(=O)CC[C@]4(C)[C@H]3CC[C@@]21C,HMGB1-induced TNF-alpha production,compound concentration: 3 uM,84.5%
Nc1ccn([C@H]2C[C@H](O)[C@@H](CO)O2)c(=O)n1 [2'-Deoxycytidine hydrochloride],HMGB1-induced TNF-alpha production,[1],72.4%
Nc1ccn([C@H]2C[C@H](O)[C@@H](CO)O2)c(=O)n1 [2'-Deoxycytidine monohydrate],HMGB1-induced TNF-alpha production,[1],66.8%
N=C(N)NCCCCNC(=N)N [Arcaine sulfate],HMGB1-induced TNF-alpha production,compound concentration: 3 uM,96.6%
Cc1ncc(CO)c(C=O)c1O [Pyridoxal hydrochloride],HMGB1-induced TNF-alpha production,[1],68%
CO[C@H]1/C=C/O[C@@]2(C)Oc3c(C)c(O)c4c(O)c(c5c(nc6cc(C)ccn65)c4c3C2=O)NC(=O)/C(C)=C\C=C\[C@H](C)[C@H](O)[C@@H](C)[C@@H](O)[C@@H](C)[C@H](OC(C)=O)[C@@H]1C,HMGB1-induced TNF-alpha production,compound concentration: 3 uM,94.9 ± 15%
CO[C@H]1/C=C/O[C@@]2(C)Oc3c(C)c(O)c4c(O)c(c5c(nc6cc(C)ccn65)c4c3C2=O)NC(=O)/C(C)=C\C=C\[C@H](C)[C@H](O)[C@@H](C)[C@@H](O)[C@@H](C)[C@H](OC(C)=O)[C@@H]1C [Rifaximin],HMGB1-induced TNF-alpha production,compound concentration: 3 uM,92.9%
Clc1cccc(Cl)c1NC1=NCCN1 [Clonidine hydrochloride],HMGB1-induced TNF-alpha production,compound concentration: 3 uM,77.01 ± 0.17%
Clc1cccc(Cl)c1NC1=NCCN1 [Clonidine HCl],HMGB1-induced TNF-alpha production,compound concentration: 3 uM,95.4%
CN(C)S(=O)(=O)c1ccc2c(c1)/C(=C/c1cc3c([nH]1)CCCC3)C(=O)N2,HMGB1-induced TNF-alpha production,compound concentration: 3 uM,65.8%
CN1CCN(C2Cc3ccccc3Sc3ccc(Cl)cc32)CC1 (racemic) [(±)-Octoclothepin maleate],HMGB1-induced TNF-alpha production,compound concentration: 3 uM,98.5%
O=C1[C@H]2CCCC[C@H]2C(=O)N1CCCCN1CCN(c2nsc3ccccc23)CC1,HMGB1-induced TNF-alpha production,compound concentration: 3 uM,106%
Cc1c(N=CC(O)CN2CC3CC(C2)c2cccc(=O)n2C3)c(=O)n(-c2ccccc2)n1C (configuration not stated),HMGB1-induced TNF-alpha production,[1],79.8%
Nc1nc2c(ncn2COC(CO)CO)c(=O)[nH]1 [Ganciclovir],HMGB1-induced TNF-alpha production,compound concentration: 3 uM,98.6 ± 12%
NCCCCCC(=O)O [Aminocaproic acid],HMGB1-induced TNF-alpha production,compound concentration: 3 uM,98.7%
NCCCCCC(=O)O,HMGB1-induced TNF-alpha production,compound concentration: 3 uM,81.9%
CN(C)C(=N)NC(=N)N,HMGB1-induced TNF-alpha production,compound concentration: 3 uM,98.3%
CN(C)C(=N)NC(=N)N [Metformin hydrochloride],HMGB1-induced TNF-alpha production,compound concentration: 3 uM,79%
CN(C)C(=N)NC(=N)N [Metformin],HMGB1-induced TNF-alpha production,compound concentration: 3 uM,83.2%
CC1CC2C3CCC4=CC(=O)C=CC4(C)C3(F)C(O)CC2(C)C1C(=O)CO (configuration not stated),HMGB1-induced TNF-alpha production,compound concentration: 3 uM,39%
CC=CC(=O)N(CC)c1ccccc1C,HMGB1-induced TNF-alpha production,compound concentration: 3 uM,97.9 ± 22%
CC=CC(=O)N(CC)c1ccccc1C [Crotamiton],HMGB1-induced TNF-alpha production,compound concentration: 3 uM,86.8 ± 21%
CNCCc1ccccn1 [Betahistine mesylate],HMGB1-induced TNF-alpha production,compound concentration: 3 uM,65.3%
CNCCc1ccccn1,HMGB1-induced TNF-alpha production,compound concentration: 3 uM,87.4%
CC(=O)[C@@]1(O)CC[C@H]2[C@@H]3CCC4=CC(=O)CC[C@]4(C)[C@H]3CC[C@@]21C,HMGB1-induced TNF-alpha production,compound concentration: 3 uM,78.5%
C[C@H]1[C@H](C)CC[C@]2(C(=O)O)CC[C@]3(C)C(=CC[C@@H]4[C@@]5(C)CC[C@H](O)C(C)(C)[C@@H]5CC[C@]43C)[C@H]12 [Ursolic acid],HMGB1-induced TNF-alpha production,[1],64.5%
O=C(c1ccc(F)cc1)C1CCN(CCn2c(=O)[nH]c3ccccc3c2=O)CC1 [Ketanserin tartrate hydrate],HMGB1-induced TNF-alpha production,compound concentration: 3 uM,80.7%
O=C(c1ccc(F)cc1)C1CCN(CCn2c(=O)[nH]c3ccccc3c2=O)CC1,HMGB1-induced TNF-alpha production,compound concentration: 3 uM,100%
O=C(c1ccc(F)cc1)C1CCN(CCn2c(=O)[nH]c3ccccc3c2=O)CC1 [Ketanserin],HMGB1-induced TNF-alpha production,compound concentration: 3 uM,76.6%
O=C(c1ccc(F)cc1)C1CCN(CCn2c(=O)[nH]c3ccccc3c2=O)CC1 [Ketanserin tartrate],HMGB1-induced TNF-alpha production,compound concentration: 3 uM,96.8%
CCN(CC)C(=O)c1ccc(O)c(OC)c1 [Vanillic acid diethylamide],HMGB1-induced TNF-alpha production,compound concentration: 3 uM,86.5%
CCN(CC)C(=O)c1ccc(O)c(OC)c1 [Ethamivan],HMGB1-induced TNF-alpha production,compound concentration: 3 uM,58.9%
CCN(CC)C(=O)c1ccc(O)c(OC)c1,HMGB1-induced TNF-alpha production,compound concentration: 3 uM,90.6%
NC1(C(=O)O)CC1 [1-Aminocyclopropanecarboxylic acid hydrochloride],HMGB1-induced TNF-alpha production,compound concentration: 3 uM,116%
O=C1NC(=O)c2cc(Nc3ccccc3)c(Nc3ccccc3)cc21,HMGB1-induced TNF-alpha production,compound concentration: 3 uM,93.7%
Cc1[nH]cnc1CN1CCc2c(c3ccccc3n2C)C1=O,HMGB1-induced TNF-alpha production,compound concentration: 3 uM,101%
O=C(O)CCc1ccc(NCc2cccc(Oc3ccccc3)c2)cc1,HMGB1-induced TNF-alpha production,compound concentration: 3 uM,83.1%
CCCOc1ccc2[nH]c(NC(=O)OC)nc2c1 [Oxibendazole],HMGB1-induced TNF-alpha production,compound concentration: 3 uM,97.2%
CCCOc1ccc2[nH]c(NC(=O)OC)nc2c1 [Oxibendazol],HMGB1-induced TNF-alpha production,compound concentration: 3 uM,116%
CCCOc1ccc2[nH]c(NC(=O)OC)nc2c1,HMGB1-induced TNF-alpha production,compound concentration: 3 uM,114%
O=C(CCCCCN1CCN(c2ccccc2-c2ccccc2)CC1)NC1CCCc2ccccc21 (configuration not stated) [LP 12 hydrochloride hydrate],HMGB1-induced TNF-alpha production,compound concentration: 3 uM,97%
Cc1cc2nc3c(=O)[nH]c(=O)nc-3n(C[C@H](O)[C@H](O)[C@H](O)CO)c2cc1C,HMGB1-induced TNF-alpha production,compound concentration: 3 uM,95.2%
CSC(=N)N [S-Methylisothiourea hemisulfate],HMGB1-induced TNF-alpha production,compound concentration: 3 uM,111%
CN(CCCN1c2ccccc2CCc2ccccc21)CC(=O)c1ccc(Cl)cc1,HMGB1-induced TNF-alpha production,compound concentration: 3 uM,120%
CN(C)CCOC(c1ccccc1)c1ccccc1.Cn1c(=O)c2[nH]c(Cl)nc2n(C)c1=O [Dimenhydrinate],HMGB1-induced TNF-alpha production,compound concentration: 3 uM,70.9%
CN(C)CCOC(c1ccccc1)c1ccccc1.Cn1c(=O)c2[nH]c(Cl)nc2n(C)c1=O,HMGB1-induced TNF-alpha production,compound concentration: 3 uM,85.2%
Cl.N[C@@H](CCC(=O)O)C(=O)O [L-Glutamic acid hydrochloride],HMGB1-induced TNF-alpha production,compound concentration: 3 uM,83.4%
O=C1NCC2(CCN(CCc3ccccc3)CC2)O1 [Fenspiride hydrochloride],HMGB1-induced TNF-alpha production,compound concentration: 3 uM,85.9 ± 7.2%
O=C1NCC2(CCN(CCc3ccccc3)CC2)O1,HMGB1-induced TNF-alpha production,compound concentration: 3 uM,102%
Clc1ccc2c(c1)CCc1cccnc1C2=C1CCNCC1,HMGB1-induced TNF-alpha production,compound concentration: 3 uM,97.5%
Clc1ccc2c(c1)CCc1cccnc1C2=C1CCNCC1 [Desloratadine],HMGB1-induced TNF-alpha production,compound concentration: 3 uM,85.9 ± 3.1%
CCCCCC(=O)OC1(C(C)=O)CCC2C3CCC4=CC(=O)CCC4(C)C3CCC21C (configuration not stated) [17a-Hydroxyprogesterone hexanoate],HMGB1-induced TNF-alpha production,[1],59%
CN(C)CCCc1cc(C(=O)Nc2ccc(-c3ccncc3)cc2)ccc1O,HMGB1-induced TNF-alpha production,compound concentration: 3 uM,82.3%
NC1CONC1=O (racemic) [DL-Cycloserine],HMGB1-induced TNF-alpha production,compound concentration: 3 uM,84.6%
CCc1nn(CCCN2CCN(c3cccc(Cl)c3)CC2)c(=O)n1CCOc1ccccc1 [Nefazodone HCl],HMGB1-induced TNF-alpha production,compound concentration: 3 uM,65.5%
CCc1nn(CCCN2CCN(c3cccc(Cl)c3)CC2)c(=O)n1CCOc1ccccc1 [Nefazodone],HMGB1-induced TNF-alpha production,compound concentration: 3 uM,82.5 ± 16%
O=S(=O)(c1cccc2cnccc12)N1CCCNCC1,HMGB1-induced TNF-alpha production,compound concentration: 3 uM,94.2%
COc1cc2nc(N3CCCN(C)CC3)nc(NC3CCN(Cc4ccccc4)CC3)c2cc1OC,HMGB1-induced TNF-alpha production,compound concentration: 3 uM,99.4%
CCCNC(C)(C)COC(=O)c1ccccc1 [Meprylcaine hydrochloride],HMGB1-induced TNF-alpha production,compound concentration: 3 uM,148%
"OC[C@H]1NC[C@@H](O)[C@@H]1O [1,4-Dideoxy-1,4-imino-D-arabinitol]",HMGB1-induced TNF-alpha production,compound concentration: 3 uM,78%
C[N+](C)(CCOc1ccccc1)Cc1ccccc1.O=C([O-])c1cc2ccccc2cc1O [Bephenium hydroxynaphthoate],HMGB1-induced TNF-alpha production,compound concentration: 3 uM,106%
Cc1nc2c([nH]1)c(=O)n(C)c(=O)n2Cc1ccco1 [Furafylline],HMGB1-induced TNF-alpha production,compound concentration: 3 uM,103 ± 26%
"CC(=O)O[C@H]1[C@H](C)OC=C[C@@H]1OC(C)=O [3,4-Di-O-acetyl-6-deoxy-L-glucal]",HMGB1-induced TNF-alpha production,[1],104%
CC(NCCc1ccc(O)cc1)C(O)c1ccc(O)cc1 (configuration not stated) [Ritodrine hydrochloride],HMGB1-induced TNF-alpha production,compound concentration: 3 uM,43.6 ± 16%
CC(NCCc1ccc(O)cc1)C(O)c1ccc(O)cc1 (configuration not stated),HMGB1-induced TNF-alpha production,compound concentration: 3 uM,50.5%
NC[C@@H]1O[C@H](O[C@H]2[C@@H](O)[C@H](O[C@@H]3[C@@H](O)[C@H](N)C[C@H](N)[C@H]3O[C@H]3O[C@H](CN)[C@@H](O)[C@H](O)[C@H]3N)O[C@@H]2CO)[C@H](N)[C@@H](O)[C@@H]1O [Neomycin B sulfate; Neomycin Trisulfate],HMGB1-induced TNF-alpha production,[1],70.6%
NC[C@@H]1O[C@H](O[C@H]2[C@@H](O)[C@H](O[C@@H]3[C@@H](O)[C@H](N)C[C@H](N)[C@H]3O[C@H]3O[C@H](CN)[C@@H](O)[C@H](O)[C@H]3N)O[C@@H]2CO)[C@H](N)[C@@H](O)[C@@H]1O [Neomycin],HMGB1-induced TNF-alpha production,compound concentration: 3 uM,118%
CC(=O)Nc1ccc(OC(C)=O)cc1,HMGB1-induced TNF-alpha production,compound concentration: 3 uM,80.2%
NC1CCN(c2c(F)cc3c(=O)c(C(=O)O)cn(C4CC4)c3c2Cl)C1 (configuration not stated) [Clinafloxacin],HMGB1-induced TNF-alpha production,compound concentration: 3 uM,108%
CCC1(C)CC(=O)NC1=O (configuration not stated) [Ethosuximide],HMGB1-induced TNF-alpha production,compound concentration: 3 uM,89.8 ± 16%
CCC1(C)CC(=O)NC1=O (configuration not stated),HMGB1-induced TNF-alpha production,compound concentration: 3 uM,99.2%
COc1cc(CNC(=O)CCCCCCC(C)C)ccc1O [Dihydrocapsaicin],HMGB1-induced TNF-alpha production,[1],46.8%
same,HMGB1-induced TNF-alpha production,compound concentration: 3 uM,90.3%
CCCc1nn(C)c2c(=O)[nH]c(-c3cc(S(=O)(=O)N4CCN(C)CC4)ccc3OCC)nc12 [Sildenafil],HMGB1-induced TNF-alpha production,compound concentration: 3 uM,108 ± 33%
NNC(=O)c1ccncc1.Nc1ccc(C(=O)O)c(O)c1,HMGB1-induced TNF-alpha production,compound concentration: 3 uM,76.6%
CCCCS(=N)(=O)CCC(N)C(=O)O [L-Buthionine-sulfoximine],HMGB1-induced TNF-alpha production,compound concentration: 3 uM,91.9%
COc1cccc(OC)c1OCCNCC1CSc2ccccc2O1 (configuration not stated) [Benoxathian hydrochloride],HMGB1-induced TNF-alpha production,compound concentration: 3 uM,74.7%
